Data as given in paper PMC5577323, “Oxidant sensor in the cGMP-binding pocket of PKGIα regulates nitroxyl-mediated kinase activity” (Scientific Reports, 2017).
No constants are given. Whether binding was seen depends on the method and setting. In cells and extracts the contact can be indirect. Some entries that bind do so weakly or less than the wild type.

Biological target: endogenous PKGIα, mouse (mouse (endogenous in mesenteric arteries and cremaster muscle)) (UniProt P0C605)
Assay: cross-linking; interprotein disulfide in endogenous PKGIα of mouse mesenteric vessels (NCA or AS in vitro) and cremaster muscle (50 µmol/L NCA or AS in vivo); homogenates in non-reducing Laemmli buffer with maleimide, SDS-PAGE, western blot for PKGIα

binding: binds
B1: endogenous PKGIα, mouse (enzyme, UniProt P0C605 1-671)
chain: MSELEEDFAKILMLKEERIKELEKRLSEKEEEIQELKRKLHKCQSVLPVPSTHIGPRTTRAQGISAEPQTYRSFHDLRQAFRKFTKSERSKDLIKEAILDNDFMKNLELSQIQEIVDCMYPVEYGKDSCIIKEGDVGSLVYVMEDGKVEVTKEGVKLCTMGPGKVFGELAILYNCTRTATVKTLVNVKLWAIDRQCFQTIMMRTGLIKHTEYMEFLKSVPTFQSLPDEILSKLADVLEETHYENGEYIIRQGARGDTFFIISKGQVNVTREDSPSEDPVFLRTLGKGDWFGEKALQGEDVRTANVIAAEAVTCLVIDRDSFKHLIGGLDDVSNKAYEDAEAKAKYEAEAAFFANLKLSDFNIIDTLGVGGFGRVELVQLKSEESKTFAMKILKKRHIVDTRQQEHIRSEKQIMQGAHSDFIVRLYRTFKDSKYLYMLMEACLGGELWTILRDRGSFEDSTTRFYTACVVEAFAYLHSKGIIYRDLKPENLILDHRGYAKLVDFGFAKKIGFGKKTWTFCGTPEYVAPEIILNKGHDISADYWSLGILMYELLTGSPPFSGPDPMKTYNIILRGIDMIEFPKKIAKNAANLIKKLCRDNPSERLGNLKNGVKDIQKHKWFEGFNWEGLRKGTLTPPIIPSVASPTDTSNFDSFPEDSDEPPPDDNSGWDIDF
modifications: inter- and intradisulfide after HNO donors
